{
  "source": "paper PMC8451688",
  "about": "(Journal of Enzyme Inhibition and Medicinal Chemistry, 2021)",
  "key": {"PC-3 cells": {"system": "PC-3 cells", "type": "cell-based, human"}, "HepG2 cells": {"system": "HepG2 cells", "type": "cell-based, human"}, "NRK-52E cells": {"system": "NRK-52E cells", "type": "cell-based, rat"}},
  "data": [
    {"compound": "COc1cc2c(c(OC)c1OC)-c1ccc(OC)c(=O)cc1[C@@H](NC(C)=O)CC2", "note": "[Colchicine, colchicine, reference compound]", "values": [
      {"measurement": "IC50 (%inhibition ± SD) PC-3", "setting": "PC-3 cells", "result": "1.93 ± 0.28", "unit": "%"},
      {"measurement": "IC50 (%inhibition ± SD) HepG2", "setting": "HepG2 cells", "result": "3.87 ± 0.22", "unit": "%"},
      {"measurement": "IC50 (%inhibition ± SD) NRK-52E", "setting": "NRK-52E cells", "result": "3.21 ± 0.67", "unit": "%"}
    ]}
  ]
}
